This note sets out measurements from article PMC3362553.

The chains behind the UniProt entries cited, without tags or fusion partners.
UniProt P23804: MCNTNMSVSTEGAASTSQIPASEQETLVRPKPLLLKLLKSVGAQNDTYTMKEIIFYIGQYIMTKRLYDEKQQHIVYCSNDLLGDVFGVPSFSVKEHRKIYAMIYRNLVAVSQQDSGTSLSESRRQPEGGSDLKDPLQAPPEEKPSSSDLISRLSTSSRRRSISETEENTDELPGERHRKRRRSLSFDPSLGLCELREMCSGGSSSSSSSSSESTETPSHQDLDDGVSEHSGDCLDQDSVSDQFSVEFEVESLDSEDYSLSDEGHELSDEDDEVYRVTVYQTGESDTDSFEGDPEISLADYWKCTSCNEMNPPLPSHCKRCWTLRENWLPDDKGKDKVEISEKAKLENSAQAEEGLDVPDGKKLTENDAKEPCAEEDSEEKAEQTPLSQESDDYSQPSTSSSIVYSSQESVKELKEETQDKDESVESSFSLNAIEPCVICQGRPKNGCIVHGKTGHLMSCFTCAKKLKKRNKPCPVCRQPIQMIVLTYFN

Results are given in words; binding and its absence hold for the method and conditions named. Binding seen in cells or lysates may run through a third protein. Some binding calls cover weakened binding; strength is not graded here.

This test deals with Mdm2 (murine double minute 2), wild type (mouse (endogenous in MEFs)) (UniProt P23804). Briefly: co-IP; Mdm2^+/+;p53^ER/- and Mdm2^m/m;p53^ER/- MEF cells 24 h after 4-OHT, 0.1% NP-40 lysis buffer, immunoprecipitation for Mdm2, western blotting.

B1: Mdmx (protein, UniProt O35618 1-489)
chain: MTSHSTSAQCSASDSACRISSEQISQVRPKLQLLKILHAAGAQGEVFTMKEVMHYLGQYIMVKQLYDQQEQHMVYCGGDLLGDLLGCQSFSVKDPSPLYDMLRKNLVTSASINTDAAQTLALAQDHTMDFPSQDRLKHGATEYSNPRKRTEEEDTHTLPTSRHKCRDSRADEDLIEHLSQDETSRLDLDFEEWDVAGLPWWFLGNLRNNCIPKSNGSTDLQTNQDIGTAIVSDTTDDLWFLNETVSEQLGVGIKVEAANSEQTSEVGKTSNKKTVEVGKDDDLEDSRSLSDDTDVELTSEDEWQCTECKKFNSPSKRYCFRCWALRKDWYSDCSKLTHSLSTSNITAIPEKKDNEGIDVPDCRRTISAPVVRPKDGYLKEEKPRFDPCNSVGFLDLAHSSESQEIISSAREQTDIFSEQKAETESMEDFQNVLKPCSLCEKRPRDGNIIHGKTSHLTTCFHCARRLKKSGASCPACKKEIQLVIKVFIA
For B1, the binding entry is listed as “binds”.
